Assay results published in US20160326153A1, “N-SUBSTITUTED IMINO HETEROCYCLIC COMPOUNDS” (BASF SE, priority 2013, published 2016).
Some entries share one result that the patent states for a list of compounds.

Tests used:
Format in all cases: in vivo
Ceratitis capitata = assay: Mediterranean fruitfly (Ceratitis capitata) control, microtiter plates with insect diet and eggs; conditions: 2500 ppm; egg and larval mortality after 5 days
Protocol: B.5 Mediterranean Fruitfly (Ceratitis capitata)
For evaluating control of Mediterranean fruitfly (Ceratitis capitata) the test unit consisted of microtiter plates containing an insect diet and 50-80 C. capitata eggs.
The compounds were formulated using a solution containing 75% v/v water and 25% v/v DMSO. Different concentrations of formulated compounds were sprayed onto the insect diet at 5 μl, using a custom built micro atomizer, at two replications.
After application, microtiter plates were incubated at about 28±1° C. and about 80±5% relative humidity for 5 days. Egg and larval mortality was then visually assessed.

Dichromothrips corbetti = assay: Orchid thrips (Dichromothrips corbetti) floral-immersion technique; conditions: 500 ppm; 72 hours after treatment
Myzus persicae [1] = assay: Green peach aphid (Myzus persicae) through systemic means, artificial diet under membrane in microtiter plates; conditions: 2500 ppm, 3 days
From the text: For evaluating control of green peach aphid (Myzus persicae) through systemic means the test unit consisted of 96-well-microtiter plates containing liquid artificial diet under an artificial membrane.
The compounds were formulated using a solution containing 75% v/v water and 25% v/v DMSO. Different concentrations of formulated compounds were pipetted into the aphid diet, using a custom built pipetter, at two replications.
After application, 5-8 adult aphids were placed on the artificial membrane inside the microtiter plate wells. The aphids were then allowed to suck on the treated aphid diet and incubated at about 23±1° C. and about 50±5% relative humidity for 3 days. Aphid mortality and fecundity was then visually assessed.

Aedes aegypti = conditions: 2500 ppm; larval mortality after 2 days
Protocol: B.11 Yellow Fever Mosquito (Aedes aegypti)
For evaluating control of yellow fever mosquito (Aedes aegypti) the test unit consisted of 96-well-microtiter plates containing 200 μl of tap water per well and 5-15 freshly hatched A. aegypti larvae.
The active compounds were formulated using a solution containing 75% (v/v) water and 25% (v/v) DMSO. Different concentrations of formulated compounds or mixtures were sprayed onto the insect diet at 2.5 μl, using a custom built micro atomizer, at two replications.
After application, microtiter plates were incubated at 28+1° C., 80+5% RH for 2 days. Larval mortality was then visually assessed.

Megoura viciae = assay: Vetch aphid (Megoura viciae) through contact or systemic means, broad bean leaf disks; conditions: 2500 ppm, 5 days
Protocol: B.10 Vetch Aphid (Megoura viciae)
For evaluating control of vetch aphid (Megoura viciae) through contact or systemic means the test unit consisted of 24-well-microtiter plates containing broad bean leaf disks.
The compounds were formulated using a solution containing 75% v/v water and 25% v/v DMSO. Different concentrations of formulated compounds were sprayed onto the leaf disks at 2.5 μl, using a custom built micro atomizer, at two replications.
After application, the leaf disks were air-dried and 5-8 adult aphids placed on the leaf disks inside the microtiter plate wells. The aphids were then allowed to suck on the treated leaf disks and incubated at about 23±1° C. and about 50±5% relative humidity for 5 days. Aphid mortality and fecundity was then visually assessed.

Nephotettix virescens = assay: Rice green leafhopper (Nephotettix virescens) on sprayed rice seedlings; conditions: 500 ppm; after 72 hours
Protocol: B.7 Rice Green Leafhopper (Nephotettix virescens)
Rice seedlings were cleaned and washed 24 hours before spraying. The active compounds were formulated in 1:1 acetone:water (vol:vol), and 0.01% vol/vol surfactant (Kinetic HV) was added. Potted rice seedlings were sprayed with 5-6 ml test solution, air dried, covered with Mylar cages cages and inoculated with 10 adults. Treated rice plants were kept at about 28-29° C. and relative humidity of about 50-60%. Percent mortality was recorded after 72 hours.

Anthonomus grandis = assay: Boll weevil (Anthonomus grandis) control, microtiter plate with insect diet and eggs; conditions: 2500 ppm; egg and larval mortality after 5 days
Myzus persicae [2] = assay: Green peach aphid (Myzus persicae) on sprayed bell pepper plants; conditions: 300 ppm, after 5 days
Aphis gossypii = assay: Cotton aphid (Aphis gossypii) on sprayed cotton plants; conditions: 300 ppm; aphid mortality after 5 days
Bemisia argentifolii = assay: Silverleaf whitefly (Bemisia argentifolii) on sprayed cotton plants; conditions: 500 ppm; 3 days after treatment
Aphis craccivora = assay: Cowpea aphid (Aphis craccivora) on sprayed cowpea plants; conditions: 500 ppm; after 72 hours
Protocol: B.3 Cowpea Aphid (Aphis craccivora)
The active compound is dissolved at the desired concentration in a mixture of 1:1 (vol:vol) distilled water:acetone. Surfactant (Kinetic HV) is added at a rate of 0.01% (vol/vol). The test solution is prepared at the day of use.
Potted cowpea plants were colonized with approximately 50-100 aphids of various stages by manually transferring a leaf tissue cut from infested plant 24 hours before application. Plants were sprayed after the pest population has been recorded. Treated plants are maintained on light carts at about 28° C. Percent mortality was assessed after 72 hours.

Measured: mortality in comparison with untreated controls

O=C(ON=c1ccccn1Cc1ccc(Cl)nc1)C(F)F [IA.1-10]
at least 75%: Ceratitis capitata | Dichromothrips corbetti | Myzus persicae [1] | Aedes aegypti | Megoura viciae | Nephotettix virescens

O=C(NCC(F)(F)F)NN=c1ccccn1Cc1ccc(Cl)nc1 [IB.1-3]
not listed: Ceratitis capitata | Aedes aegypti
at least 75%: all other assays above

O=C(NCC(F)F)NN=c1ccccn1Cc1ccc(Cl)nc1 [IB.1-4]
not listed: Ceratitis capitata | Aedes aegypti | Anthonomus grandis | Aphis gossypii
at least 75%: all other assays above

O=C(NN=c1ccccn1Cc1ccc(Cl)nc1)Nc1cccnc1 [IB.1-5]
not listed: Ceratitis capitata | Anthonomus grandis | Aphis craccivora
at least 75%: all other assays above

CC(C)(C)OC(=O)NN=c1ccccn1Cc1cnc(Cl)s1 [IB.1-6]
at least 75%: Myzus persicae [2] | Aphis gossypii | Dichromothrips corbetti

CON=CC(=O)NN=c1ccccn1Cc1cnc(Cl)s1 [IB.1-8]
at least 75%: Anthonomus grandis | Myzus persicae [1] | Megoura viciae | Nephotettix virescens

N#CC1(C(=O)NN=c2ccccn2Cc2cnc(Cl)s2)CC1 [IB.1-9]
not listed: Nephotettix virescens | Anthonomus grandis | Bemisia argentifolii
at least 75%: all other assays above

O=C(NN=c1ccccn1Cc1cnc(Cl)s1)C(F)(F)F [IB.1-11]
not listed: Ceratitis capitata | Myzus persicae [2] | Aphis gossypii | Bemisia argentifolii
at least 75%: all other assays above

CON=C(C#N)C(=O)NN=c1ccccn1Cc1cnc(Cl)s1 [IB.1-12]
not listed: Dichromothrips corbetti | Bemisia argentifolii
at least 75%: all other assays above

O=C(NN=c1ccccn1Cc1cnc(Cl)s1)Nc1cccnc1 [IB.1-16]
not listed: Ceratitis capitata | Anthonomus grandis | Bemisia argentifolii
at least 75%: all other assays above

O=C(NCc1ccccc1)NN=c1ccccn1Cc1cnc(Cl)s1 [IB.1-17]
not listed: Ceratitis capitata | Dichromothrips corbetti | Anthonomus grandis | Aphis craccivora
at least 75%: all other assays above

O=C(NN=c1ccccn1Cc1cnc(Cl)s1)C(F)F [IB.1-18]
not listed: Ceratitis capitata | Anthonomus grandis | Bemisia argentifolii | Aphis craccivora
at least 75%: all other assays above

O=C(NCc1ccccc1)NN=c1ccccn1Cc1ccc(Cl)nc1 [IB.1-22]
not listed: Ceratitis capitata | Dichromothrips corbetti | Aedes aegypti | Anthonomus grandis
at least 75%: all other assays above

O=C(NN=c1ccccn1Cc1ccc(Cl)nc1)Nc1ccccc1 [IB.1-23]
at least 75%: Myzus persicae [2] | Aphis gossypii | Bemisia argentifolii | Myzus persicae [1] | Aedes aegypti | Megoura viciae

CC(=O)NN=c1ccccn1Cc1ccc(Cl)nc1 [IB.1-24]
not listed: Ceratitis capitata | Aedes aegypti | Anthonomus grandis
at least 75%: all other assays above

CC(C)c1ccc(NC(=O)NN=c2ccccn2Cc2ccc(Cl)nc2)cc1 [IB.1-27]
at least 75%: Dichromothrips corbetti | Myzus persicae [1] | Megoura viciae | Aphis craccivora | Nephotettix virescens
